Results on nine molecules are retold here after doi:10.1101/2023.10.24.563882.

The chains behind the UniProt entries cited, without tags or fusion partners. Residues count along the entry.
UniProt Q6QNK2, residues 26-874: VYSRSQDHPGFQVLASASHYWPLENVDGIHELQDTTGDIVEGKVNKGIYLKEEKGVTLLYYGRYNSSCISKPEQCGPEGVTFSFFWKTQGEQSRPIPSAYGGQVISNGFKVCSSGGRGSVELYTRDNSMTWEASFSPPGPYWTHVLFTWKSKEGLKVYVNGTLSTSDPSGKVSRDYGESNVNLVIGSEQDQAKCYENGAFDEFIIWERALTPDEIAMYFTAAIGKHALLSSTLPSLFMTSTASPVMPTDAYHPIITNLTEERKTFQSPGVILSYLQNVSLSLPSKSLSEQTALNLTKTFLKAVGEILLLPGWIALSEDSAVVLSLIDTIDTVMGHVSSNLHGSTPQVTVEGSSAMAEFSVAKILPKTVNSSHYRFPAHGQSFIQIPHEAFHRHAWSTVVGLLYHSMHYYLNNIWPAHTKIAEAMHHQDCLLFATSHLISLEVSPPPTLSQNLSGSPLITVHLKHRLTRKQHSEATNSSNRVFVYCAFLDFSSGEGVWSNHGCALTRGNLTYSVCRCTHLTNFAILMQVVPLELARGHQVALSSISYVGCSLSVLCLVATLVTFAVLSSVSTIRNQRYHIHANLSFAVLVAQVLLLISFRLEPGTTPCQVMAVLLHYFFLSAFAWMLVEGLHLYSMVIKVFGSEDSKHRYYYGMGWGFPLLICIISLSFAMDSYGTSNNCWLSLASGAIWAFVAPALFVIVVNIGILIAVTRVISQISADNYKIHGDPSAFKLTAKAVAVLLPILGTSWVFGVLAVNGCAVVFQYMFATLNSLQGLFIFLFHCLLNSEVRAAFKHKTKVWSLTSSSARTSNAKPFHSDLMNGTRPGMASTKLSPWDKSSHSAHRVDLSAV
UniProt O88704: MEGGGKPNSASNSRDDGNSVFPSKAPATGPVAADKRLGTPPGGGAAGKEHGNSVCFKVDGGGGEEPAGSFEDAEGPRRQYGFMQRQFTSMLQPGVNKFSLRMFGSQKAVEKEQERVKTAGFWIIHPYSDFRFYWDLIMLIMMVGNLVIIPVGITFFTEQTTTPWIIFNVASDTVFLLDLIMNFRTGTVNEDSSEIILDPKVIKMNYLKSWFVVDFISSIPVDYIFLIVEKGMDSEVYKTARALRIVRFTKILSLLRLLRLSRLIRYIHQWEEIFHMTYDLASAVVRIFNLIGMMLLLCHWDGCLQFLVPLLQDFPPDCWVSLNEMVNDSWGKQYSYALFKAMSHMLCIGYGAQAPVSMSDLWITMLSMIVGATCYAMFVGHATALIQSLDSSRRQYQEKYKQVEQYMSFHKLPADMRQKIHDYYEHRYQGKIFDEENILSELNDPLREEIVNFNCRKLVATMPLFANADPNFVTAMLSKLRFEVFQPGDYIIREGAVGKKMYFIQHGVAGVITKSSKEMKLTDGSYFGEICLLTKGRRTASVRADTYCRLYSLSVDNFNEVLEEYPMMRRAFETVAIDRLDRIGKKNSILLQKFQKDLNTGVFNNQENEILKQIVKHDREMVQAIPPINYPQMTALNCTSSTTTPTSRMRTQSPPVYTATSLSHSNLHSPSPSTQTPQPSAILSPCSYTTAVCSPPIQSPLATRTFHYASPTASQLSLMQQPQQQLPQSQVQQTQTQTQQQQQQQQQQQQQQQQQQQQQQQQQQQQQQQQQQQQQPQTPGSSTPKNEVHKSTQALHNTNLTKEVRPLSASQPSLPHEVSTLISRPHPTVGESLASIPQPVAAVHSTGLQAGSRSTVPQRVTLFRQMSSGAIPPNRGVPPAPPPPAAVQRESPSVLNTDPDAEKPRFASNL
UniProt E1AZ71: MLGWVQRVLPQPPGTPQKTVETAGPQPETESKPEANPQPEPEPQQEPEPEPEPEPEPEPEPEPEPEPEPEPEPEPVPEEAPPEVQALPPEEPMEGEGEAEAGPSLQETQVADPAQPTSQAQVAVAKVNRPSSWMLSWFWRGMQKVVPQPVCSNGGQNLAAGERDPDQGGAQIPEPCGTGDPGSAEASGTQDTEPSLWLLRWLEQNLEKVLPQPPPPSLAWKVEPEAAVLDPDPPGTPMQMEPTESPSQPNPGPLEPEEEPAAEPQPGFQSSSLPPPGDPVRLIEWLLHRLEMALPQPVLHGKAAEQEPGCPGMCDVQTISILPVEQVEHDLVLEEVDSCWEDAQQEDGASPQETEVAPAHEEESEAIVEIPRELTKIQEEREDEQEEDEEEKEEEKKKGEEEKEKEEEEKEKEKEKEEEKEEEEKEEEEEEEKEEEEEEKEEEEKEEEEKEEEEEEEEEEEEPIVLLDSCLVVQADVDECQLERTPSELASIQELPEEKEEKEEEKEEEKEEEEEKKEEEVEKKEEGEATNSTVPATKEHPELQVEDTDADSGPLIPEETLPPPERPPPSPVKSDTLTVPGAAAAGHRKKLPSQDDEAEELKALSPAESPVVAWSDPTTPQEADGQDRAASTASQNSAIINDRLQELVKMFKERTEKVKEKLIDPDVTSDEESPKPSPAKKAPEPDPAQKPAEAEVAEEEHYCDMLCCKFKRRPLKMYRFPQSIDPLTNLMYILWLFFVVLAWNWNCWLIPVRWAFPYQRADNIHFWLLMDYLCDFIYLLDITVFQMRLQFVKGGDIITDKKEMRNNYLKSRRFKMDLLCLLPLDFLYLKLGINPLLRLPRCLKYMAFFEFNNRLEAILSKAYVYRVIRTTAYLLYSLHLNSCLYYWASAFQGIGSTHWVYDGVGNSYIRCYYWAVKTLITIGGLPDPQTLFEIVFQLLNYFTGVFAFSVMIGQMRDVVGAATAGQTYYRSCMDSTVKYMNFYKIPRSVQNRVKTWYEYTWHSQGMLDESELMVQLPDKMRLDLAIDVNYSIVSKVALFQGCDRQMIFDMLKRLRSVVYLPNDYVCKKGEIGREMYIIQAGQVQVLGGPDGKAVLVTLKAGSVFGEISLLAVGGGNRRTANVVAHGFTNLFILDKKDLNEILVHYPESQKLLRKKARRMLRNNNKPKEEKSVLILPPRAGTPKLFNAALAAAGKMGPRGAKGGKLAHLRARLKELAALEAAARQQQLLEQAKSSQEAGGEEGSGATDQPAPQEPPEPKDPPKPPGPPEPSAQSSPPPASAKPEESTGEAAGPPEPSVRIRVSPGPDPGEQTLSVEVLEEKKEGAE

These are yes or no findings as the source states them, for the method shown. Binding seen in cells or lysates may run through a third protein. Some binding calls cover weakened binding; strength is not graded here.

Experiment [1] concerns the target T1, GPR133 (mouse (endogenous in utricle)) (UniProt Q80T32).
T1 sequence: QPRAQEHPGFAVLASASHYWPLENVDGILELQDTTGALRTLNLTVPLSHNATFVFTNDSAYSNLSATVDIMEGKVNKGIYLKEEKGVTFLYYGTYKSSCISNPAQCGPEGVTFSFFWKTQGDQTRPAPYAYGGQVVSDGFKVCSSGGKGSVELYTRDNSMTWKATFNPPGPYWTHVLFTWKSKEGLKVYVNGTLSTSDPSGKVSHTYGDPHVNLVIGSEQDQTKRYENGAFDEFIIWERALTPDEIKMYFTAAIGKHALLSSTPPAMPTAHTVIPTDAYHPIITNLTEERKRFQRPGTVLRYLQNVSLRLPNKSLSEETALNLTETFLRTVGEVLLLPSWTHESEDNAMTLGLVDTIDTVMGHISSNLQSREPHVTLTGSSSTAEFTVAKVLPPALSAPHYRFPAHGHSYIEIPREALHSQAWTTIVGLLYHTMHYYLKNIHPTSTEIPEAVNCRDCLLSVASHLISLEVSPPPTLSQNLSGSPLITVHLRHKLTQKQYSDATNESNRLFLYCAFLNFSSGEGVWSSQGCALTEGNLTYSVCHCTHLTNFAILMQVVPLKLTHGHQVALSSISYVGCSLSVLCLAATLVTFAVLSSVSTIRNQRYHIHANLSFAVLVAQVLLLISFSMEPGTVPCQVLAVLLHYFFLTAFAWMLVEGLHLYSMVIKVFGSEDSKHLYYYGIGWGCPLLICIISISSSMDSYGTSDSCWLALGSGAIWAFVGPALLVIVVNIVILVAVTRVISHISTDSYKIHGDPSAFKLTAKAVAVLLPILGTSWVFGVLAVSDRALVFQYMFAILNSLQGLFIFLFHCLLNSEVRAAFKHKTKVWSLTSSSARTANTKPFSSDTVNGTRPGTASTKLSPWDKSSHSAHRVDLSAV
Description: co-IP.

Experiment [2] has as its target GPR133 (WT full-length GPR133, overexpressed in HEK293 cells) (UniProt Q6QNK2). Description: co-IP.

As for HCN1 (from UniProt O88704 1-910), in experiment [1], the binding result was “no binding”.
As for “HCN1 (in HEK293 cells) (from UniProt O88704 1-910)”, the binding result in experiment [2] is on record as “no binding”.
For the molecule CNGB1 (from UniProt E1AZ71 1-1325), the binding result in experiment [1] is “no binding”.

B1: CNGA3 (protein, UniProt Q9JJZ8 1-631)
chain: MAKVNTQCSQPSPTQLSIKNADRDLDHVENGLGRVSRLIISIRAWASRHLHDEDQTPDSFLDRFHGSELKEVSTRESNAQPNPGEQKPPDGGEGRKEEPIVVDPSSNIYYRWLTAIALPVFYNWCLLVCRACFDELQSEHLTLWLVLDYSADVLYVLDMLVRARTGFLEQGLMVRDTKRLWKHYTKTLHFKLDILSLIPTDLAYLKLGVNYPELRFNRLLKFSRLFEFFDRTETRTNYPNVFRIGNLVLYTLIIIHWNACIYFAISKFIGFGTDSWVYPNTSKPEYARLSRKYIYSLYWSTLTLTTIGETPPPVKDEEYLFVVIDFLVGILIFATIVGNVGSMISNMNAPRVEFQAKIDSVKQYMQFRKVTKDLETRVIRWFDYLWANRKTVDEKEVLKNLPDKLKAEIAINVHLDTLKKVRIFQDCEAGLLVELVLKLRPTVFSPGDYICKKGDIGREMYIIKEGKLAVVADDGVTQFVVLSDGSYFGEISILNIKGSKSGNRRTANIRSIGYSDLFCLSKDDLMEALTEYPDAKRALEEKGRQILMKDNLIDEDLVAARVDTRDVEEKVEYLESSLDILQTRFARLLAEYSASQMKLKQRLTRLESQMNRRCCGFSPDRENSEDASKTD
B1: the binding entry in experiment [1] is on record as “binds”.

B2: CNGA3 (in HEK293 cells) (protein, UniProt Q9JJZ8 1-631)
chain: B1 chain
For B2, the binding entry in experiment [2] is “binds”.

B3: CNGA1 (protein, UniProt P29974 1-684)
chain: MKTNIINTWHSFVNIPNVIVPAIEKEIRRMENGACSSFSDDDNGSLSEESENEDSFFRSNSYKRRGPSQREQHLPGTMALFNVNNSSNKDQEPKEKKKKKKEKKSKADDKNENKKDPEKKKKKEKEKEKKKKEEKTKEKKEEEKKEVVVIDPSGNTYYNWLFCITLPVMYNWTMIIARACFDELQSDYLEYWLIFDYVSDVVYLADMFVRTRTGYLEQGLLVKDRMKLIEKYKANLQFKLDVLSVIPTDLLYIKFGWNYPEIRLNRLLRISRMFEFFQRTETRTNYPNIFRISNLVMYIVIIIHWNACVYYSISKAIGFGNDTWVYPDVNDPEFGRLARKYVYSLYWSTLTLTTIGETPPPVLDSEYIFVVVDFLIGVLIFATIVGNIGSMISNMNAARAEFQSRVDAIKQYMNFRNVSKDMEKRVIKWFDYLWTNKKTVDEREVLRYLPDKLRAEIAINVHLDTLKKVRIFADCEAGLLVELVLKLQPQVYSPGDYICKKGDIGREMYIIKEGKLAVVADDGITQFVVLSDGSYFGEISILNIKGSKAGNRRTANIKSIGYSDLFCLSKDDLMEALTEYPDAKTMLEEKGRQILMKDGLLDINIANMGSDPKDLEEKVTRMEGSVDLLQTRFARILAEYESMQQKLKQRLTKVEKFLKPLIETEFSALEEPGGESELTESLQD
With B3, the binding entry in experiment [1] was “no binding”.

B4: CNGA1 (in HEK293 cells) (protein, UniProt P29974 1-684)
chain: B3 chain
For B4, the binding entry in experiment [2] is reported as “no binding”.

B5: HCN4 (protein, UniProt O70507 1-1201)
chain: MDKLPPSMRKRLYSLPQQVGAKAWIMDEEEDGEEEGAGGRQDPSRRSIRLRPLPSPSPSVAAGCSESRGAALGATESEGPGRSAGKSSTNGDCRRFRGSLASLGSRGGGSGGAGGGSSLGHLHDSAEERRLIAAEGDASPGEDRTPPGLATEPERPATAAQPAASPPPQQPPQPASASCEQPSADTAIKVEGGAAASDQILPEAEVRLGQSGFMQRQFGAMLQPGVNKFSLRMFGSQKAVEREQERVKSAGFWIIHPYSDFRFYWDLTMLLLMVGNLIIIPVGITFFKDENTTPWIVFNVVSDTFFLIDLVLNFRTGIVVEDNTEIILDPQRIKMKYLKSWFVVDFISSIPVDYIFLIVETRIDSEVYKTARALRIVRFTKILSLLRLLRLSRLIRYIHQWEEIFHMTYDLASAVVRIVNLIGMMLLLCHWDGCLQFLVPMLQDFPHDCWVSINGMVNNSWGKQYSYALFKAMSHMLCIGYGRQAPVGMSDVWLTMLSMIVGATCYAMFIGHATALIQSLDSSRRQYQEKYKQVEQYMSFHKLPPDTRQRIHDYYEHRYQGKMFDEESILGELSEPLREEIINFNCRKLVASMPLFANADPNFVTSMLTKLRFEVFQPGDYIIREGTIGKKMYFIQHGVVSVLTKGNKETKLADGSYFGEICLLTRGRRTASVRADTYCRLYSLSVDNFNEVLEEYPMMRRAFETVALDRLDRIGKKNSILLHKVQHDLNSGVFNYQENEIIQQIVRHDREMAHCAHRVQAAASATPTPTPVIWTPLIQAPLQAAAATTSVAIALTHHPRLPAAIFRPPPGPGLGNLGAGQTPRHPRRLQSLIPSALGSASPASSPSQVDTPSSSSFHIQQLAGFSAPPGLSPLLPSSSSSPPPGACGSPPAPTPSTSTAAAASTTGFGHFHKALGGSLSSSDSPLLTPLQPGARSPQAAQPPPPLPGARGGLGLLEHFLPPPPSSRSPSSSPGQLGQPPGELSLGLAAGPSSTPETPPRPERPSFMAGASGGASPVAFTPRGGLSPPGHSPGPPRTFPSAPPRASGSHGSLLLPPASSPPPPQVPQRRGTPPLTPGRLTQDLKLISASQPALPQDGAQTLRRASPHSSGESVAAFSLYPRAGGGSGSSGGLGPPGRPYGAIPGQHVTLPRKTSSGSLPPPLSLFGARAASSGGPPLTTAAPQREPGARSEPVRSKLPSNL
In the case of B5, in experiment [1], the binding entry was “no binding”.

B6: HCN4 (in HEK293 cells) (protein, UniProt O70507 1-1201)
chain: B5 chain
For the molecule B6, the binding result in experiment [2] is “no binding”.
